Test results reported in publication doi:10.1101/2024.01.04.574143.

B1: Siz1(313-508), SIM-containing catalytic fragment of S. cerevisiae Siz1 (domain or fragment, UniProt Q04195 313-508)
chain: MITPEQLLEKVLQHPKIIKQATLLYLKKTLREDEEMGLTTTSTIMSLQCPISYTRMKYPSKSINCKHLQCFDALWFLHSQLQIPTWQCPVCQIDIALENLAISEFVDDILQNCQKNVEQVELTSDGKWTAILEDDDDSDSDSNDGSRSPEKGTSVSDHHCSSSHPSEPIIINLDSDDDEPNGNNPHVTNNHDDSNR
B2: TDP2 (N-terminally GST-tagged) (enzyme, UniProt O95551 1-362)
chain: MELGSCLEGGREAAEEEGEPEVKKRRLLCVEFASVASCDAAVAQCFLAENDWEMERALNSYFEPPVEESALERRPETISEPKTYVDLTNEETTDSTTSKISPSEDTQQENGSMFSLITWNIDGLDLNNLSERARGVCSYLALYSPDVIFLQEVIPPYYSYLKKRSSNYEIITGHEEGYFTAIMLKKSRVKLKSQEIIPFPSTKMMRNLLCVHVNVSGNELCLMTSHLESTRGHAAERMNQLKMVLKKMQEAPESATVIFAGDTNLRDREVTRCGGLPNNIVDVWEFLGKPKHCQYTWDTQMNSNLGITAACKLRFDRIFFRAAAEEGHIIPRSLDLLGLEKLDCGRFPSDHWGLLCNLDIIL

Key:
Test in all cases: pull-down
[1] = molecular target: Smt3 with the N-terminus deleted (untagged) (S. cerevisiae) [SUMO: Q12306]
[2] = molecular target: SUMO1ΔN19 (untagged) (human)
[3] = molecular target: SUMO1 E11K (untagged) (human)
[4] = molecular target: SUMO1 D12K (untagged) (human)

Row | Binder | binding [1] | binding [2] | binding [3] | binding [4]
1 | B1 | binds |  |  | 
2 | B2 |  | binds | binds | binds

Results are given in words; binding and its absence hold for the method and conditions named. A result given as binding can be weak or reduced; the word gives no strength. For some of these results: Where a sequence is shown, tags or fusion partners need not be part of it.
